Test results reported in publication PMC5009064.
These are yes or no findings as the source states them, for the method shown. For some of these results: In cells and extracts the contact can be indirect. Some binding calls cover weakened binding; strength is not graded here. For some of these results: Where a sequence is shown, tags or fusion partners need not be part of it.

Protein sequences, listed by entry. Tags and fused reporters are not part of them. Lines headed by an entry give the natural chain unless they say otherwise; changes in a name come on top.
UniProt Q9HC29: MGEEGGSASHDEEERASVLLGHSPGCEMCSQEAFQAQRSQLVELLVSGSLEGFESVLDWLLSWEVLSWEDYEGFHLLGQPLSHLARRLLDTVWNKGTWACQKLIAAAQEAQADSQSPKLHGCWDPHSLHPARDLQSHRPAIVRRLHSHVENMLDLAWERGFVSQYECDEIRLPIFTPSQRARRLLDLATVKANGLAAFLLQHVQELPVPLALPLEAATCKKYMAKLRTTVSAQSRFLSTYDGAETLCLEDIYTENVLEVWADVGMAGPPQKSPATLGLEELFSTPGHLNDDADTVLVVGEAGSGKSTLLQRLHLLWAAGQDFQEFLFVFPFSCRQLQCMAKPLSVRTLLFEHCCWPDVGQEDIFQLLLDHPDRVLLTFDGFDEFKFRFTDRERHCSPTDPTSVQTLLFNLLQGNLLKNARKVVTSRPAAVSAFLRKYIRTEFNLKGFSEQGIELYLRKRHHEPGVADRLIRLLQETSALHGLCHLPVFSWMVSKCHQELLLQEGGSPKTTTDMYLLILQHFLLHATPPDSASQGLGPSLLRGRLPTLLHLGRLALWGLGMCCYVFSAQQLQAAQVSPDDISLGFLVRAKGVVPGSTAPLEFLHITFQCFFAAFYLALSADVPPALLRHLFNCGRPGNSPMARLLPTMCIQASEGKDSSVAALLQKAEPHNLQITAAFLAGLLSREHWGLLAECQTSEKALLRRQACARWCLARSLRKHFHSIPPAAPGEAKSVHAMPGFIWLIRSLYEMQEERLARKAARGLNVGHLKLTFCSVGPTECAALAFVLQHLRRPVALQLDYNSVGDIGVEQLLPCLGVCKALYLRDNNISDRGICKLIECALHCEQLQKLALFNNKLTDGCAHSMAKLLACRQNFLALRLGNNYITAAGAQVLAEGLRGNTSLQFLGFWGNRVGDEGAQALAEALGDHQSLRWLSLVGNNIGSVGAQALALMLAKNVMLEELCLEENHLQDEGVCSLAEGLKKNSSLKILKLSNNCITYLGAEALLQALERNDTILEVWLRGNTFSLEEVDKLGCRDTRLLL
UniProt Q96EP0: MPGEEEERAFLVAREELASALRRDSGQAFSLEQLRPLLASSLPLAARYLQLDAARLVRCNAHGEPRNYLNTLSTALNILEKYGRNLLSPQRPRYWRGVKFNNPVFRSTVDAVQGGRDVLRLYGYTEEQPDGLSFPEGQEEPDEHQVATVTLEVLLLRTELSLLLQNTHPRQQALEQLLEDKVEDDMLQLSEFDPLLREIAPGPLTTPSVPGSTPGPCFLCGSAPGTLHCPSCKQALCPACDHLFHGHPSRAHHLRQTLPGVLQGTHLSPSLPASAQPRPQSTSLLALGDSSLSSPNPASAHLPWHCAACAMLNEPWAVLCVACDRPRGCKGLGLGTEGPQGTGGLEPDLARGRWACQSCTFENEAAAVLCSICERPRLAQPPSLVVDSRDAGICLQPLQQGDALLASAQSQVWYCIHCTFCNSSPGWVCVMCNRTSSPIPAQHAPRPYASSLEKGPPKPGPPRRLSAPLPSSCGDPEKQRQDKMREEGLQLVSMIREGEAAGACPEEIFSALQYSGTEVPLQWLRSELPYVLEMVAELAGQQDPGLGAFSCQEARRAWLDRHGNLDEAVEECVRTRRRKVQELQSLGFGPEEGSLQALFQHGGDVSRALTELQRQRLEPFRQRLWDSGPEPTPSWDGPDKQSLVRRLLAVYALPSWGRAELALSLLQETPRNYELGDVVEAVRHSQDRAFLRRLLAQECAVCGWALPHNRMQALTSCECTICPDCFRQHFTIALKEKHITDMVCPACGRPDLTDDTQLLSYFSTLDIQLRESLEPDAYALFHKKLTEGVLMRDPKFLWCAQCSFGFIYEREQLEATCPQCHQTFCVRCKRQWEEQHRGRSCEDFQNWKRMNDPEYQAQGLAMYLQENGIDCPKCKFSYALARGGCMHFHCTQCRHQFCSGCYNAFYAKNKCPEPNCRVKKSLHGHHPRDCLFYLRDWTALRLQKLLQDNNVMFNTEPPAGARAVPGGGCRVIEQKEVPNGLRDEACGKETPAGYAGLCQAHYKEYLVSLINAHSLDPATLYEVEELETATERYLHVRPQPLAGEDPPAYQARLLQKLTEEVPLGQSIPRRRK

Assays:
[1] = biological target: T1, GFP-SPATA2 fragment comprising amino acids 1-116 (UniProt Q9UM82); assay: co-IP; truncated forms of GFP-SPATA2 expressed in HEK293 cells; anti-GFP IP, western blot for HOIP and CYLD
T1 sequence: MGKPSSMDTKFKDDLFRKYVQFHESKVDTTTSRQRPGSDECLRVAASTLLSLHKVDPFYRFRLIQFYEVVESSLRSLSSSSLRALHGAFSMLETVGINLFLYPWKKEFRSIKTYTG

NOD2-TAP = NOD2-TAP (UniProt Q9HC29); assay: co-IP; A549 cells stably transfected with NOD2-TAP, stimulated with L18-MDP (200 ng/ml), NOD2-SC purified, western blot
[2] = biological target: T2, peptide derived from the PIM motif of OTULIN; assay: ITC; 293 K, ITC-200; 25 mM HEPES pH 7.5, 150 mM NaCl, 0.5 mM TCEP; 20 injections of 2 ul HOIP-PUB domain into peptide or domain in the cell; 1:1 binding model; both purified
T2 sequence (peptide): AEHEEDMYRA

CYLD-USP domain = biological target: T3, CYLD-USP domain (UniProt Q9NQC7); assay: condition: 398 μM HOIP-PUB domain into the CYLD-USP domain at 40 μM; ITC; 293 K, ITC-200; 25 mM HEPES pH 7.5, 150 mM NaCl, 0.5 mM TCEP; 20 injections of 2 ul HOIP-PUB domain into peptide or domain in the cell; 1:1 binding model; both purified
T3 sequence: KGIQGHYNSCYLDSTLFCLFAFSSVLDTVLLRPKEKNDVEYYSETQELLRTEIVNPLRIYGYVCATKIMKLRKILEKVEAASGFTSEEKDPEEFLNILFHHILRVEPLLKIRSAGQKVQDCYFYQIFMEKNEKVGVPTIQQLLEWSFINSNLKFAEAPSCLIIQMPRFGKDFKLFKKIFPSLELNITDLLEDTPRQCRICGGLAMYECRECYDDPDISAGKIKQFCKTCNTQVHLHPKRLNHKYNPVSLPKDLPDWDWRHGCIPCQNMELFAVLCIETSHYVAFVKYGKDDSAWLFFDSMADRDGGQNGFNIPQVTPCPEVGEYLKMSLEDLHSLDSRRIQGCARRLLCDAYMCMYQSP

Substance: HOIP (from UniProt Q96EP0 1-1072) (enzyme)
- binding [1]: no binding
- binding (NOD2-TAP): binds

Substance: HOIP-PUB domain (from UniProt Q96EP0 71-142) (domain or fragment)
- binding [2]: binds
- binding (CYLD-USP domain): no binding
